Experimental data: PubChem BioAssay AID504793 (Drosophila RNAi Screening Center, 2011)
Test: 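Genes required for cells to halt at G2/M after double-strand DNA breaks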 (primary screen). Cells: Drosophila S2R+ cells. Reagent: long dsRNA against Drosophila genes, about 0.25 µg dsRNA per well. Time to read-out: 4 days of dsRNA, then 4 hours of drug before read-out. Treatment: doxorubicin 0.5 µM for 4 hours to cause double-strand breaks, in cells also given a low, harmless dose of dsRNA against nbs to sensitise the assay. Read-out: 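Per-well count of mitotic cells stained for phospho-histone H3 after doxorubicin exposure, used as mitotic index; counts are raw and not normalised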. Scale: mitotic cells: higher = more cells in mitosis, weaker G2 arrest. Call rule: 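Genes are called active only when high mitotic counts were reproduced with independent dsRNAs and mitosis was checked for delay without damage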. Calls: active = confirmed in follow-up tests; inactive = not confirmed.
In all, the deposit lists about 23,000 reagents; shown is a random part of those that have a named target and a result. In the full data, 62 (0.27%) are marked active. 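Calls come from follow-up tests whose scores are not deposited, so confirmed genes may have low counts here; counts are not normalised per plate.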 Raw values vary from plate to plate and are shown uncorrected.

gene | dsRNA | mitotic cells, replicate 1 | Call
CG31688 | DRSC02682 | 5 | inactive
CG31688 | DRSC26711 | 8 | inactive
Or33b (Odorant receptor 33b) | DRSC03387 | 7 | inactive
CG42500 | DRSC14822 | 6 | inactive
RpS13 (Ribosomal protein S13) | DRSC03419 | – | inactive
RpS13 (Ribosomal protein S13) | DRSC28558 | 1 | inactive
CecA1 (Cecropin A1) | DRSC16603 | 13 | inactive
CG7568 | DRSC16259 | 13 | inactive
CG7568 | DRSC28378 | 7 | inactive
CG12842 (retired record) | DRSC06188 | 10 | inactive
CG12842 (retired record) | DRSC24909 | 4 | inactive
tef (teflon) | DRSC07301 | 10 | inactive
tef (teflon) | DRSC22041 | 15 | inactive
tef (teflon) | DRSC26918 | 11 | inactive
Or94a (Odorant receptor 94a) | DRSC16772 | 6 | inactive
CR31958 (pseudo) | DRSC00282 | 1 | inactive
CR31958 (pseudo) | DRSC21858 | 13 | inactive
CR31958 (pseudo) | DRSC25319 | 5 | inactive
Mrp5 (Multidrug resistance protein 5) | DRSC15597 | 8 | inactive
Mrp5 (Multidrug resistance protein 5) | DRSC15598 | 11 | inactive
Mrp5 (Multidrug resistance protein 5) | DRSC25669 | 11 | inactive
BuGZ (Bub3 interacting GLEBS and Zinc finger domain protein) | DRSC02642 | 4 | inactive
BuGZ (Bub3 interacting GLEBS and Zinc finger domain protein) | DRSC02643 | 5 | inactive
BuGZ (Bub3 interacting GLEBS and Zinc finger domain protein) | DRSC25285 | 2 | inactive
CG14629 | DRSC18476 | 18 | inactive
CG14629 | DRSC23909 | 3 | inactive
Klp54D (Kinesin-like protein at 54D) | DRSC07450 | 3 | inactive
CG12147 | DRSC12192 | 3 | inactive
CG12147 | DRSC30029 | 10 | inactive
robo3 (roundabout 3) | DRSC00374 | 4 | inactive
robo3 (roundabout 3) | DRSC00684 | 3 | inactive
ACXD (Adenylyl cyclase X D) | DRSC07843 | 5 | inactive
ACXD (Adenylyl cyclase X D) | DRSC23762 | 1 | inactive
Cln3 | DRSC10520 | 5 | inactive
Cln3 | DRSC27270 | 16 | inactive
CG13841 | DRSC14691 | 7 | inactive
CG13841 | DRSC26257 | 8 | inactive
Culd (CUB and LDLa domain) | DRSC10262 | 8 | inactive
lncRNA:CR30009 (long non-coding RNA:CR30009) | DRSC22952 | 16 | inactive
lncRNA:CR30009 (long non-coding RNA:CR30009) | DRSC29817 | 5 | inactive
tok (tolkin) | DRSC17087 | 5 | inactive
tok (tolkin) | DRSC39140 | 10 | inactive
Atg13 (Autophagy-related 13) | DRSC16228 | 8 | inactive
CG13526 | DRSC04168 | 2 | inactive
Cyp311a1 (Cytochrome P450 311a1) | DRSC20239 | 6 | inactive
Cyp311a1 (Cytochrome P450 311a1) | DRSC27062 | 10 | inactive

Entries above whose gene name starts with R or r (4):
gene | dsRNA | mitotic cells, replicate 1 | Call
RpS13 (Ribosomal protein S13) | DRSC03419 | – | inactive
RpS13 (Ribosomal protein S13) | DRSC28558 | 1 | inactive
robo3 (roundabout 3) | DRSC00374 | 4 | inactive
robo3 (roundabout 3) | DRSC00684 | 3 | inactive
